No constants are given. Whether binding was seen depends on the method and setting. For part of these data: Binding seen in cells or lysates may run through a third protein. For part of these data: Where a sequence is shown, tags or fusion partners need not be part of it. Some results given as binding are weak or reduced against the parent protein; the word gives no strength.
T1: murine zDHHC13-Cub-PLV bait (mouse) (UniProt Q9CWU2)
T1 sequence: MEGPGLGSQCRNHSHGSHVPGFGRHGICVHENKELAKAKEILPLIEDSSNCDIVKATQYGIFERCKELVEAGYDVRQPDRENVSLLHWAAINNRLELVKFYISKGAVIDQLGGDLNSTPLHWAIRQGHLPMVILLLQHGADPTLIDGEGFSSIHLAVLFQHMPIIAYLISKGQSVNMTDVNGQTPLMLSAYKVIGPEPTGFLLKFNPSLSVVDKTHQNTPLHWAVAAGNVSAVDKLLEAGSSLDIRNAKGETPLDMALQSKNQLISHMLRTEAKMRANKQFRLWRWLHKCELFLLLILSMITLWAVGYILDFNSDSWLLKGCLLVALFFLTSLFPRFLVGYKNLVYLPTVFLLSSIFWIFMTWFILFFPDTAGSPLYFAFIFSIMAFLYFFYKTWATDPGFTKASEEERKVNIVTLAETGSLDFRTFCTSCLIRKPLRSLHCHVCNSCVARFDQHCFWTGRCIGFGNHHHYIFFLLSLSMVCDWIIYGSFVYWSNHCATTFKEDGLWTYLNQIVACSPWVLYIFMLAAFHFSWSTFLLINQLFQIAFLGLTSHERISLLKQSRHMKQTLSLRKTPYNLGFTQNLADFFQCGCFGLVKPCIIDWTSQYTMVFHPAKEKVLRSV

Sequences of proteins named here, by UniProt entry; tags and fusion partners are left off. Residues count along the entry.
UniProt Q80TN5: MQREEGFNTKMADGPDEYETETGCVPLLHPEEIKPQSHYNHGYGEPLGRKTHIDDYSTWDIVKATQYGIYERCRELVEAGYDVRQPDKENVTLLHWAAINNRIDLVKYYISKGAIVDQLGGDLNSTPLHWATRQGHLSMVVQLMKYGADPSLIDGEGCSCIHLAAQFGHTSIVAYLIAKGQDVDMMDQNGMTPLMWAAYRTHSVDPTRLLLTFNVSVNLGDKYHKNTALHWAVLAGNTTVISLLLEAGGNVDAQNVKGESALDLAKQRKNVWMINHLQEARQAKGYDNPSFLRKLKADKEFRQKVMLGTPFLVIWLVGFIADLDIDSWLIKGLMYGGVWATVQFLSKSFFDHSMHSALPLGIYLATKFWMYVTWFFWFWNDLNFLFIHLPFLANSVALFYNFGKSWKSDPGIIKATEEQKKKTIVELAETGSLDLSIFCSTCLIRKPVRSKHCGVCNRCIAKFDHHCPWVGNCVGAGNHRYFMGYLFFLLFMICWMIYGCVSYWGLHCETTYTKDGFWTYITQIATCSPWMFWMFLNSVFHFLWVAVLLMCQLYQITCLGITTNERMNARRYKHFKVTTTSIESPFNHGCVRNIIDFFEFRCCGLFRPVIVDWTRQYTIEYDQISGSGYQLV
UniProt Q8IUH5, residues 51-304: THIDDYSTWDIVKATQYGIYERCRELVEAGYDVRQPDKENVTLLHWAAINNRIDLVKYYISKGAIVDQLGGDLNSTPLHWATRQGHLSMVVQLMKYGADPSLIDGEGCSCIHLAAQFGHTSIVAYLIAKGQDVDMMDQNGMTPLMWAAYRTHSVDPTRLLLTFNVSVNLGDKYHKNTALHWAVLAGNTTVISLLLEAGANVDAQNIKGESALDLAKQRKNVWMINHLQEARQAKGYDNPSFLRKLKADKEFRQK

B1: NubG-2HA-SPRED2, wild-type murine SPRED2 (protein, UniProt Q924S7 1-410)
chain: MTEETHPDDDSYIVRVKAVVMTRDDSSGGWFPQEGGGISRVGVCKVMHPEGNGRSGFLIHGERQKDKLVVLECYVRKDLVYTKANPTFHHWKVDNRKFGLTFQSPADARAFDRGVRKAIEDLIEGSTTSSSTLHNEAELGDDDVFTTATDSSSNSSQKREPTTRTISSPTSCEHRKIYTLDPYPMDHYHPDQRLPRSYPQVTFPEDDEEIVRINPREKIWMTGYEDYRHAPVRGKYLDTTEDADSYVRFAKGEVPKHEYTYPYVDSSDFGFGEDPKGSVIKTQPPRAKSRRRKENGERSRCVYCRDMFNHEENRRGHCQDAPDAVRTCIRRVSCMWCADSMLYHCMSDPEGDYTDPCSCDTSDEKFCLRWMALIALSFLAPCMCCYLPLRACHRCGVMCRCCGGKHKAAA
B2: EGFP-tagged EVL isoform 5 (protein, UniProt Q9UI08-5 1-397)
chain: MATSEQSICQARASVMVYDDTSKKWVPIKPGQQGFSRINIYHNTASNTFRVVGVKLQDQQVVINYSIVKGLKYNQATPTFHQWRDARQVYGLNFASKEEATTFSNAMLFALNIMNSQEGGPSSQRQVQNGPSPDEMDIQRRQVMEQHQQQRQESLERRTSATGPILPPGHPSSAASAPVSCSGPPPPPPPPVPPPPTGATPPPPPPLPAGGAQGSSHDESSMSGLAAAIAGAKLRRVQRPEDASGGSSPSGTSKSDANRASSGGGGGGLMEEMNKLLAKRRKAASQSDKPAEKKEDESQMEDPSTSPSPGTRAASQPPNSSEAGRKPWERSNSVEKPVSSILSRMKPAGSVNDMALDAFDLDRMKQEILEEVVRELHKVKEEIIDAIRQELSGISTT

Assays:
[1] = biological target: T1, murine zDHHC13-Cub-PLV bait (mouse); experiment: two-hybrid; mating-based split-ubiquitin system (SUS) in yeast; zDHHC-Cub-PLV bait, NubG-2HA-tagged prey; growth on SD media lacking adenine and histidine
[2] = biological target: murine zDHHC17-Cub-PLV bait (mouse) (UniProt Q80TN5); experiment: as above
[3] = biological target: ARzD17-His (51–304 amino acids of human zDHHC17) (human) (UniProt Q8IUH5); experiment: pull-down; HEK293T lysates with EGFP-tagged proteins incubated with 50 μg ARzD17-His (51–304) and Ni-NTA agarose, 2 h at 4 °C; washes 20 mM Tris-HCl pH 8, 300 mM NaCl, 1% Triton, 40 mM imidazole; blot with GFP antibody; only the target purified

Row | Binder | binding [1] | binding [2] | binding [3]
1 | B1 | binds | binds | –
2 | B2 | – | – | no binding

Source: paper PMC5655499, “Peptide array-based screening reveals a large number of proteins interacting with the ankyrin-repeat domain of the zDHHC17 S-acyltransferase” (The Journal of Biological Chemistry, 2017)
